Experimental data from patent publication US20060062777A1.
No constants are given. Whether binding was seen depends on the method and setting. For part of these data: In cells and extracts the contact can be indirect. Some results given as binding are weak or reduced against the parent protein; the word gives no strength.

By UniProt entry, the sequences of proteins in these tests, tags left out. Where a name states a change or a piece, a line headed by the entry shows the natural chain unless it says otherwise. Residues count along the entry.
UniProt P08648: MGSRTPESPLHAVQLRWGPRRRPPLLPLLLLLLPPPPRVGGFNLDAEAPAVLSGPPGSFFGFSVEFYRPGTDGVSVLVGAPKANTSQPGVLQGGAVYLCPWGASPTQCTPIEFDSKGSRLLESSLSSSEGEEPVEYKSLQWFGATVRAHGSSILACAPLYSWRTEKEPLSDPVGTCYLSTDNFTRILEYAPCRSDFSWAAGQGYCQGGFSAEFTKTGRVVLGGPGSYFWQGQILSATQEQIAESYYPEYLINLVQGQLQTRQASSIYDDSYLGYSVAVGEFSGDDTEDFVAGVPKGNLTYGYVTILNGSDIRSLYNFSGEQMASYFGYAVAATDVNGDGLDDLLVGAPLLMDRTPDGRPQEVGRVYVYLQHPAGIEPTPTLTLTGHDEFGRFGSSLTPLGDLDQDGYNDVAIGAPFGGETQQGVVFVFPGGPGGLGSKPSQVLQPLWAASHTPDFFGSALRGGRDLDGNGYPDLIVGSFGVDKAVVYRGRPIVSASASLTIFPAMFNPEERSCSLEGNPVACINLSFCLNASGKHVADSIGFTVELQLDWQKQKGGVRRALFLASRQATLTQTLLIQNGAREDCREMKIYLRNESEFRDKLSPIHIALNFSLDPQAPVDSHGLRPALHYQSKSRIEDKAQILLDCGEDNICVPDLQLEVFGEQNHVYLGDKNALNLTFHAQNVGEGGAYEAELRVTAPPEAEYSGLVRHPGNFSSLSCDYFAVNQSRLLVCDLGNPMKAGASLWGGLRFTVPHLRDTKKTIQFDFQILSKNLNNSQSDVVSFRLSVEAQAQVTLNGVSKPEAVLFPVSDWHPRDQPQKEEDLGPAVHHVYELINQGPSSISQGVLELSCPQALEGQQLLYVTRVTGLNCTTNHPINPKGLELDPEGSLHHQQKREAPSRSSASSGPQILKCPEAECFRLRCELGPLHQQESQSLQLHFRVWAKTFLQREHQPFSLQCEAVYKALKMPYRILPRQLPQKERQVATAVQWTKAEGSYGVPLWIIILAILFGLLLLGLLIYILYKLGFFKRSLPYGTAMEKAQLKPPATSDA
UniProt P05556: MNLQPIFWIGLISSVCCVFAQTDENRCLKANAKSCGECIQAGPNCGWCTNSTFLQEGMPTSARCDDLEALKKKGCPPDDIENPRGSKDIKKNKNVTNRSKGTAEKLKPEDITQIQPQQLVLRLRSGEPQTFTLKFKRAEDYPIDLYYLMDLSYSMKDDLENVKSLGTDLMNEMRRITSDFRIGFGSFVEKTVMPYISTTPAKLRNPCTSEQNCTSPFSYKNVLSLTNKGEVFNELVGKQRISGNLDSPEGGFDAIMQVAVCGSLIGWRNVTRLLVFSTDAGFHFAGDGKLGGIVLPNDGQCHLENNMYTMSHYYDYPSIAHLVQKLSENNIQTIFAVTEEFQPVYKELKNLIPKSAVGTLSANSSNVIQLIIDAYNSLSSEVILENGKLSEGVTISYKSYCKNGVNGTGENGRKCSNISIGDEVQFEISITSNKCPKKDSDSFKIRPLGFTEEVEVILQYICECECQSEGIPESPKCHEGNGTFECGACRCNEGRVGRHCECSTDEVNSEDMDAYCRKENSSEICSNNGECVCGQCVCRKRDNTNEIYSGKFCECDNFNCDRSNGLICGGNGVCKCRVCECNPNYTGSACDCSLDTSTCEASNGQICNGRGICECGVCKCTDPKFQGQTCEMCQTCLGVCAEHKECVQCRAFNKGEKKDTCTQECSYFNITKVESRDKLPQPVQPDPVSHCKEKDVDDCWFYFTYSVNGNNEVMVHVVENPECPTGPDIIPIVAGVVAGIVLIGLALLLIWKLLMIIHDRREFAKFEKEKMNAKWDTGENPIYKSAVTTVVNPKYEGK
UniProt P14780, residues 20-707: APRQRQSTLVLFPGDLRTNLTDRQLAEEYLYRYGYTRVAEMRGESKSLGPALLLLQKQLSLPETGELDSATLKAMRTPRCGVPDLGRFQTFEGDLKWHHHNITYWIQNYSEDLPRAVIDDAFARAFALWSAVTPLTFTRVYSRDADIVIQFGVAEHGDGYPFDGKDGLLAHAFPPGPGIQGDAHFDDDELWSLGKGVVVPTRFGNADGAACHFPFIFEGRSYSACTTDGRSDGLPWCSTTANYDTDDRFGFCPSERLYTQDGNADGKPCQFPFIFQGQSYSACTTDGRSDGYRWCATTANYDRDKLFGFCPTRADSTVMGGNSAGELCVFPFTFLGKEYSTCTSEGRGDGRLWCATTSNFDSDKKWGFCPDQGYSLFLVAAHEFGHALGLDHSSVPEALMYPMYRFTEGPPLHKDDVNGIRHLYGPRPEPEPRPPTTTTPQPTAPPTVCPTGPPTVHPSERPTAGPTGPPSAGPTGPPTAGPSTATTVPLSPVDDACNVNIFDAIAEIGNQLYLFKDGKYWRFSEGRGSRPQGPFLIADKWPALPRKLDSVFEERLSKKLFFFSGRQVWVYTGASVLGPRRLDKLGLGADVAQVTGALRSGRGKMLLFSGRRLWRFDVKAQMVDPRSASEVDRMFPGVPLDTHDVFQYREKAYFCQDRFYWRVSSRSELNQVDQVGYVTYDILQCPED

Tests used:
[1] = molecular target: T1, integrin α5β1 purified from human placental tissue (human) (UniProt P08648+P05556); experiment: solid phase binding assay, α5β1 immobilized at 10 ug/ml, MMP-9 at 2 ug/ml, detected with anti-MMP-9 Mab
[2] = molecular target: T1, integrin α5β1 purified from human placental tissue (human); experiment: summary of the examples
[3] = molecular target: T1, integrin α5β1 purified from human placental tissue (human); experiment: co-purification from placental lysates, western blot with anti-MMP-9 Mab

Measured: binding

Recombinant human MMP-9 (from UniProt P14780 20-707) (enzyme)
binds: all assays above
